Experimental findings from publication PMC10245119 are described below.

Amino acid sequences for entries named in this document (tags omitted). A change or cut given only in a name is not applied to a line headed by its entry.
UniProt Q60662: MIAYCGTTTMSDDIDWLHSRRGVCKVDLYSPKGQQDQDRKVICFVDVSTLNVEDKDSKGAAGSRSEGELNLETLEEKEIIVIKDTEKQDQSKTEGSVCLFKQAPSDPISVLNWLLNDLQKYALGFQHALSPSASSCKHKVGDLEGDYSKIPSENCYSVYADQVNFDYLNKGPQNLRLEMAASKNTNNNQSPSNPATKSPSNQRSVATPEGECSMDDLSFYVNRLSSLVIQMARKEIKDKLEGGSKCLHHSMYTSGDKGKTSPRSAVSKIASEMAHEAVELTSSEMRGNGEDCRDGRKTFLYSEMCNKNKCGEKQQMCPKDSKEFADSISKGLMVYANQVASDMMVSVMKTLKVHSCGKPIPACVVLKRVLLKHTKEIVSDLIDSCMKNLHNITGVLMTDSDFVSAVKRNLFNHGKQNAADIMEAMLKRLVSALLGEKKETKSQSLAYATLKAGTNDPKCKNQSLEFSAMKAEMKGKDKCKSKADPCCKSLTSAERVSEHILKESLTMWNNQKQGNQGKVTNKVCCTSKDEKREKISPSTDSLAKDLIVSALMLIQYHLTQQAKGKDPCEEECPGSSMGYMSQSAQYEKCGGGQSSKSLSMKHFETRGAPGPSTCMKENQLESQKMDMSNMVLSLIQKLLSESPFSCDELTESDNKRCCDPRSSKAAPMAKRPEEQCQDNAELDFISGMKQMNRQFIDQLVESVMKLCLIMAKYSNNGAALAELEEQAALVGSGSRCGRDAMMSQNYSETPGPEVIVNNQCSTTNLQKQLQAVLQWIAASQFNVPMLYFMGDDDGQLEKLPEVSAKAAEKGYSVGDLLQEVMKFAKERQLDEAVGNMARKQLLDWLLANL
UniProt Q924X7: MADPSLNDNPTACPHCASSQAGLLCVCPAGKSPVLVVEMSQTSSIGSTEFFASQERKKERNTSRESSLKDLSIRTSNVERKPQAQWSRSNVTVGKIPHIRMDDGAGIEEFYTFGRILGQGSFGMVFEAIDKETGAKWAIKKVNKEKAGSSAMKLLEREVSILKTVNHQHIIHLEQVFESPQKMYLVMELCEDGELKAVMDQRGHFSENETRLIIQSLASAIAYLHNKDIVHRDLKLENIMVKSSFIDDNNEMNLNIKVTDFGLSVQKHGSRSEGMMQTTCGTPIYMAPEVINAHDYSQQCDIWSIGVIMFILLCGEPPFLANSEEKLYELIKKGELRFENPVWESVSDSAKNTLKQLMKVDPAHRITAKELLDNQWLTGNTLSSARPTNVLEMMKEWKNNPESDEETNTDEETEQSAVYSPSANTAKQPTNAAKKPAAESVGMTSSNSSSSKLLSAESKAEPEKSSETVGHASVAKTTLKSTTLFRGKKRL

These are yes or no findings as the source states them, for the method shown. Binding seen in cells or lysates may run through a third protein. A result given as binding can be weak or reduced; the word gives no strength. For some assays here: Tags and fused reporters may be left off the sequences shown.

The target of assay [1] is T1, AKAP3-FLAG (A-kinase anchoring protein 3, FLAG-tagged) (UniProt O88987).
T1 sequence: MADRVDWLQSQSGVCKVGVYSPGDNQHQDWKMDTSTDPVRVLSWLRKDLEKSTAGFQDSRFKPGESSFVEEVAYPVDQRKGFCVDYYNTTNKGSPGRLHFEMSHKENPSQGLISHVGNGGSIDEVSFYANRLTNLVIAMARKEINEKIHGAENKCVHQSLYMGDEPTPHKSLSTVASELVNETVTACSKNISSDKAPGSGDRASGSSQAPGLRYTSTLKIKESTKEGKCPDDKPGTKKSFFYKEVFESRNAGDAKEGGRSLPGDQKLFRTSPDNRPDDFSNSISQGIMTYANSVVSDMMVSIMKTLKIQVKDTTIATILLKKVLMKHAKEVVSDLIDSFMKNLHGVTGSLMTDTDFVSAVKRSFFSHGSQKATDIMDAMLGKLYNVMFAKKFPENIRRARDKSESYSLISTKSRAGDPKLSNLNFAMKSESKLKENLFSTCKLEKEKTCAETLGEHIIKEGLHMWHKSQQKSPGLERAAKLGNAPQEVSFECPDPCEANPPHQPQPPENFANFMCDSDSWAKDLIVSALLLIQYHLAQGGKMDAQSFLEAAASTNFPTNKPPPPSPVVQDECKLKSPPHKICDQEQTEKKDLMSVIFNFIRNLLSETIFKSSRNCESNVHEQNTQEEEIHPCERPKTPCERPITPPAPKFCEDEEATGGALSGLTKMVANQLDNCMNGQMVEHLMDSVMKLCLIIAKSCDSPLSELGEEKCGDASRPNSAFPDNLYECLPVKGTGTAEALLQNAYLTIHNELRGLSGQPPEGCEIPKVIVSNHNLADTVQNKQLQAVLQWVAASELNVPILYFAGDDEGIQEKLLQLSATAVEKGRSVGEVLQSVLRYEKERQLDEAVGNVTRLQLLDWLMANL
As to the kind of experiment: co-IP; AKAP3-FLAG or FLAG-AKAP4-FLAG co-expressed with STK33-HA or STK33 KI-HA in HEK293T cells; lysis in Pierce IP lysis buffer; primary antibody overnight at 4 °C; protein A/G magnetic beads or G1 affinity resin; washes in PBST (0.5% Triton X-100); Western blot; reciprocal for STK33-HA.

For assay [2], the target named is FLAG-AKAP4-FLAG (A-kinase anchoring protein 4, FLAG-tagged at both ends) (UniProt Q60662). Described as above.

As to “STK33 KI-HA (C-terminally truncated STK33 as expressed in Stk33 KI/KI mice, HA-tagged) (domain or fragment)”, the binding result in assay [1] is on record as “binds”.
As to “STK33-HA (serine/threonine kinase 33, HA-tagged) (from UniProt Q924X7 1-491) (enzyme)”, the binding result in assay [2] is given as “binds”.
